Source: paper PMC4478713

Chains of the proteins cited; added tags and fusions are not shown. Lines headed by an entry give the natural chain unless they say otherwise; changes in a name come on top.
UniProt P04218: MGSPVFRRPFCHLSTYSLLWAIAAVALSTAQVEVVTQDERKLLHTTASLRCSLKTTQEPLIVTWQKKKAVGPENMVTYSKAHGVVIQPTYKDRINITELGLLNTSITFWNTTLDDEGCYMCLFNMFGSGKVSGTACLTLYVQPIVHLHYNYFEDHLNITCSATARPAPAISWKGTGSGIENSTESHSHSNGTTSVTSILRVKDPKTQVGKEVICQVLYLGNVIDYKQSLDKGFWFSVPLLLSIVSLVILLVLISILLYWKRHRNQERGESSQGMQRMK
UniProt Q9ES58: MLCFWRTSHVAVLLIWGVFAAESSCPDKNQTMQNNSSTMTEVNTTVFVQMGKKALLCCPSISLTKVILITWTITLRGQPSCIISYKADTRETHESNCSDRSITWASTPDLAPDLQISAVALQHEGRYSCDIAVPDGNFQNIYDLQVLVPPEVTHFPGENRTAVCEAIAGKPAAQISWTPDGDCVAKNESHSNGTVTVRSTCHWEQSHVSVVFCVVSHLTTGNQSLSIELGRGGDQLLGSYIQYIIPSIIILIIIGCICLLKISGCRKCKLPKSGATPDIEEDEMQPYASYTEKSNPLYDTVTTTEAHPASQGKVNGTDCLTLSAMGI

Biological target: rat Cd200 (rat) (UniProt P04218)
Assay: AVEXIS; bait and prey pre-incubated with a range of EDTA concentrations (maximum 10 mM by the methods, approximately 30 mM by the results) for one hour before AVEXIS

binding: binds
Substance: rat Cd200R (from UniProt Q9ES58)

Results are given in words; binding and its absence hold for the method and conditions named. Binding can be weak; no strength is given.
